This is one part of the list.

The target in this assay is T1, OsSMF1 (Oryza sativa, UniProt Q6ZLB0 1-436).
T1 sequence: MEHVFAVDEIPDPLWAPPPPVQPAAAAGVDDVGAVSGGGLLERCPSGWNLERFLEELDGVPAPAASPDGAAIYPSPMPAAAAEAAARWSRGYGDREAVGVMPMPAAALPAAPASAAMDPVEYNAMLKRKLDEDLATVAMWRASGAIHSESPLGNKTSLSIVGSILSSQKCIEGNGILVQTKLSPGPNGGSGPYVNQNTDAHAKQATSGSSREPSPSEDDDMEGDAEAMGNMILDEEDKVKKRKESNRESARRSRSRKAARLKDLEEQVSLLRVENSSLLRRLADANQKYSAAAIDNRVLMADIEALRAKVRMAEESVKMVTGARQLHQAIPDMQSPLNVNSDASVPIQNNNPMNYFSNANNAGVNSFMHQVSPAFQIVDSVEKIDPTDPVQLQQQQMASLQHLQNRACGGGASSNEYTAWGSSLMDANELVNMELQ
As to the kind of experiment: protein-binding microarray (RPBM); PBS, 2% BSA, 51.3 ng/ul salmon testes DNA, 50 uM zinc acetate, 200 nM TF, 25 C, 1 h; high values mean tight binding. To be noted: protein: recombinant; tags: N-terminal polyhistidine and DsRed monomer fusion (pET32a); chain copies: 2; label: CyDye5-dUTP incorporated in the synthesized complementary strand; 3' TTTTT single-stranded linker to array surface; dsDNA, one strand shown. Put shortly: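 Binding signal is defined as the fluorescence intensity of each feature in arbitrary units, read on an Axon 4000B scanner. Transcription factors with N-terminal polyhistidine and DsRed fusions came from E. coli BL21-CodonPlus and were purified on Ni–NTA. They were incubated at 200 nM for 1 h at 25 °C on a custom Agilent array that had been made double-stranded with Cy5-dUTP, with 50 µM zinc acetate present, and the array was washed.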
In the case of “AGCGATCCCCATAACGGAGGTGCGTGTCCTCCTCCTCCTCCGGAGTCACCTAGTGCAG”, the binding signal was 34000 fluorescence intensity (a.u.).
For “TGGTACCTGTGATACCTGGTACCTATGACACCTGGTATCTCGGAGTCACCTAGTGCAG”, the binding signal was 11500 fluorescence intensity (a.u.).
To “TCGAAAGCAATCTTGTCATCTCCTGCGTCATGTGACTCCACGGAGTCACCTAGTGCAG” belongs 4060 fluorescence intensity (a.u.); to “CCGCTCCACTCCACCGGCGCCGTGTTTCCCTTCTCCCTCTCGGAGTCACCTAGTGCAG”, 4430 fluorescence intensity (a.u.).
Next, “TGCTCATTCTCAGCACAAGCAGTAGCTAGCTAGCAACTCTCGGAGTCACCTAGTGCAG”: 3200 fluorescence intensity (a.u.); “ATCATGAGTTGCTGACGCTTTCCAGATCAATCCCCTTTGTCGGAGTCACCTAGTGCAG”: 4180 fluorescence intensity (a.u.).
For “CAAGTTTAGAGACCGGAGTGACACAACTGAATAAGTTGGACGGAGTCACCTAGTGCAG”, the binding signal was 5740 fluorescence intensity (a.u.).
Regarding “CTGCGCCTGCGTCTGCGCCACCGTCACCTTCGCGGCCGCGCGGAGTCACCTAGTGCAG”, the binding signal is 3450 fluorescence intensity (a.u.).
As for “ATATGACAATCAGACCTTACATCACAGTAATGTACCAATCCGGAGTCACCTAGTGCAG”, the binding signal was 3540 fluorescence intensity (a.u.).
Regarding “TCCGTTATATGTTAATCTATCCGATACTTGTAATACTTTTCGGAGTCACCTAGTGCAG”, the binding signal was 16200 fluorescence intensity (a.u.).
To “AATTGTTTACTGATCTTTGCGTTAATGATGATTGTGCCCTCGGAGTCACCTAGTGCAG” belongs 3160 fluorescence intensity (a.u.).
Turning to “CGAAACCAGTCACGGGCCACTCACAACCACCACCCTAAACCGGAGTCACCTAGTGCAG”, the binding signal is 3230 fluorescence intensity (a.u.).
To “GTACCAACAGGATCCGTGGCGCAATGGTAGCGCGTCTGACCGGAGTCACCTAGTGCAG” belongs 3210 fluorescence intensity (a.u.).
To “CCTATCAGTACTGTCACATCTGGTGTGTGTGTGTCCAACTCGGAGTCACCTAGTGCAG” belongs 4280 fluorescence intensity (a.u.).
Next, “GTGTGAGGGAGGGAGGGAGTCGGACTCACAAGTCCCGGCCCGGAGTCACCTAGTGCAG”: 3600 fluorescence intensity (a.u.).
As to “GCGGAGGCAAGAGGACGTGCAACACGTGGGATAGCGCCGACGGAGTCACCTAGTGCAG”, the binding signal is 4050 fluorescence intensity (a.u.).
“GCGGCGTAATTGTAGTCAGCACTACCGATCAGCCCCTATTCGGAGTCACCTAGTGCAG”: the binding signal was 3760 fluorescence intensity (a.u.).
To “GATGTATATCCTATTAGGCGTGTTTGCTAGAGCCACTTCCCGGAGTCACCTAGTGCAG” belongs 3910 fluorescence intensity (a.u.); to “TGCTACGGAGCTACGGATCTATGGCGACAGTAAGCGCTGGCGGAGTCACCTAGTGCAG”, 3160 fluorescence intensity (a.u.); to “CGCTGGTTAGAGGTATTACGCTAGCACGTGTAGTCTAGTCCGGAGTCACCTAGTGCAG”, 6000 fluorescence intensity (a.u.).
To “ACTTTCGTCATGCTGCAGATGTCACCACCTATAATACACTCGGAGTCACCTAGTGCAG” belongs 6750 fluorescence intensity (a.u.); to “CATGCCAGGTCAGTCGGCATCCATGAAGACTGCACTGCACCGGAGTCACCTAGTGCAG”, 42600 fluorescence intensity (a.u.).
On to “ATCTATCTATGTACCTACTGCAAAAGGCTGCTGATTCGTGCGGAGTCACCTAGTGCAG”, for which the binding signal was 3870 fluorescence intensity (a.u.).
Next, “CTCTGCATTGCACCTCTCGACCCCTAGGATGTACACGTGGCGGAGTCACCTAGTGCAG”: 15200 fluorescence intensity (a.u.); “GGCGTGGGGAGGCGGAGGGAGGGAGGGGAGCGGCTGCGCACGGAGTCACCTAGTGCAG”: 5970 fluorescence intensity (a.u.).
To “ATGAAAACGTATCAATGTACGTCAGTCACTGGACATTAATCGGAGTCACCTAGTGCAG” belongs 3310 fluorescence intensity (a.u.).
To “ACCTCTACCCTAACACAGCACACCACACCGACACGTGGGCCGGAGTCACCTAGTGCAG” belongs 6970 fluorescence intensity (a.u.); to “CAACCTTTATCTGAAGTGGCAGGCACGTGGATTAGCAATACGGAGTCACCTAGTGCAG”, 5790 fluorescence intensity (a.u.); to “AGTAGAACAGAATAACCTGCCACGATGGCTTTGCCCGTAACGGAGTCACCTAGTGCAG”, 4880 fluorescence intensity (a.u.).
As to “TGTGGGAGGGATGGGAGACGCTTGAGTCAACAGCGACCGGCGGAGTCACCTAGTGCAG”, the binding signal is 3690 fluorescence intensity (a.u.).
Next, “TTATGTCAAAACAATTATTAAAATACACGTGCTTCTTTTCCGGAGTCACCTAGTGCAG”: 3640 fluorescence intensity (a.u.); “CACCGGCCCCTCCACTTCTGGCCAGTGACGAGGGCGCGGACGGAGTCACCTAGTGCAG”: 3320 fluorescence intensity (a.u.).
Next, “CGCGCGCGACACTGCGCTCCCGTGCACGCCGCACGGAGGACGGAGTCACCTAGTGCAG”: 3260 fluorescence intensity (a.u.); “CTGCAGCTGACACATCTTCCTGCAAGGGCGCGGCGCAATCCGGAGTCACCTAGTGCAG”: 3700 fluorescence intensity (a.u.); “TTCTTCTAGAGGAGGAGGAGGCGGCGGGGCGGCGGGCGAGCGGAGTCACCTAGTGCAG”: 4420 fluorescence intensity (a.u.).
To “CTGGCGTGCGAGAAGGTGATGTGATGTGCGTGGCTGACGGCGGAGTCACCTAGTGCAG” belongs 4110 fluorescence intensity (a.u.); to “GGAAGGGATTGAGACCAGGGGTTTATGTGGGCCCCACTATCGGAGTCACCTAGTGCAG”, 3170 fluorescence intensity (a.u.).
“ACCCATAGAGATCGACACTATAGGTACCGGAATAACTAAACGGAGTCACCTAGTGCAG”: the binding signal is 63800 fluorescence intensity (a.u.).
Next, “CACCATGATCATCATCATGCACATCAACTATGTGCAGGCCCGGAGTCACCTAGTGCAG”: 3370 fluorescence intensity (a.u.).
To “TACCGAGGACTTGGAAACGACGCTGACGAGTTTCACCAGGCGGAGTCACCTAGTGCAG” belongs 3920 fluorescence intensity (a.u.); to “CGAAATCATGTGATACGTCAAGTGCACGTATACCAACTCACGGAGTCACCTAGTGCAG”, 28600 fluorescence intensity (a.u.); to “ATTTAGCGGCTATCTCTGACTAAGTGCAGCTATTAGTGGTCGGAGTCACCTAGTGCAG”, 4790 fluorescence intensity (a.u.).
Next, “GAAGCTGCACAATAATTAGTTAAACCTCTACTCACTGCATCGGAGTCACCTAGTGCAG”: 30400 fluorescence intensity (a.u.); “CCAGTAGAGAGATCACACGTACACAACCCACAGTCTCGCCCGGAGTCACCTAGTGCAG”: 4740 fluorescence intensity (a.u.).
For “GCCGCCGCAGCCGGGTCGCCGCCGGATGACGCACCAATCGCGGAGTCACCTAGTGCAG”, the binding signal is 3900 fluorescence intensity (a.u.).
Next, “GCATTGAATATAGAGCAATTTGATGTGGCAAAACAATTGACGGAGTCACCTAGTGCAG”: 3910 fluorescence intensity (a.u.); “GACTCTTCATCTGACCTGTAGTGTAGGCCGTGTCCTGTCCCGGAGTCACCTAGTGCAG”: 3290 fluorescence intensity (a.u.); “TTACATATGGACCGGGCGCGTAAACCTCATCGTCTTTCTCCGGAGTCACCTAGTGCAG”: 3150 fluorescence intensity (a.u.).
To “CCACCACCACGTAATTAACGCTGCCTCGCTGTTAATGTTCCGGAGTCACCTAGTGCAG” belongs 4460 fluorescence intensity (a.u.).
In the case of “TGTCTGTGTTTGTCCTGACTGATGATGCATTGACTCGTTGCGGAGTCACCTAGTGCAG”, the binding signal was 3490 fluorescence intensity (a.u.).
To “AGTTAATGGAGGAGCCACCGCCACGTAAGTGCCACGTAGGCGGAGTCACCTAGTGCAG” belongs 56200 fluorescence intensity (a.u.).
To “GGATTTACTGTCCTAAGTTTAATGGTAGAGTCATACATCTCGGAGTCACCTAGTGCAG” belongs 3420 fluorescence intensity (a.u.); to “GGCGGAGGCGTGGGCGTCGACGGGGCGGGAAATACGCCAACGGAGTCACCTAGTGCAG”, 3490 fluorescence intensity (a.u.).
To “ACAGGTGGGGCCAGCACGCCACGTCTGACGTCTCCCTCTCCGGAGTCACCTAGTGCAG” belongs 14100 fluorescence intensity (a.u.).

Source of the values: article PMC7819943, “Rice protein-binding microarrays: a tool to detect cis-acting elements near promoter regions in rice”.
